Among the data in the supplement of paper PMC10849652 are log2 fold change values, retold here.

Chains of the proteins cited; added tags and fusions are not shown. Lines headed by an entry give the natural chain unless they say otherwise; changes in a name come on top.
UniProt Q3ZCQ8: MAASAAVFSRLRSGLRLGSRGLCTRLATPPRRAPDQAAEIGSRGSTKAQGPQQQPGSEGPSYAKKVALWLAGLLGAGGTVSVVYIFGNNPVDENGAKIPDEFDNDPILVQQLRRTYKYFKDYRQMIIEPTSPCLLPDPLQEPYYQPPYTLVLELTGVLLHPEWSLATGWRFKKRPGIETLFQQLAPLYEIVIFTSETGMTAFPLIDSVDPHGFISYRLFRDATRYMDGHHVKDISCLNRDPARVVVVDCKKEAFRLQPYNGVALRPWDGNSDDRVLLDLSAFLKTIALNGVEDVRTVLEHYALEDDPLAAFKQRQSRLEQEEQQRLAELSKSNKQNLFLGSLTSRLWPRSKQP
UniProt Q13488, whole entry, looked up: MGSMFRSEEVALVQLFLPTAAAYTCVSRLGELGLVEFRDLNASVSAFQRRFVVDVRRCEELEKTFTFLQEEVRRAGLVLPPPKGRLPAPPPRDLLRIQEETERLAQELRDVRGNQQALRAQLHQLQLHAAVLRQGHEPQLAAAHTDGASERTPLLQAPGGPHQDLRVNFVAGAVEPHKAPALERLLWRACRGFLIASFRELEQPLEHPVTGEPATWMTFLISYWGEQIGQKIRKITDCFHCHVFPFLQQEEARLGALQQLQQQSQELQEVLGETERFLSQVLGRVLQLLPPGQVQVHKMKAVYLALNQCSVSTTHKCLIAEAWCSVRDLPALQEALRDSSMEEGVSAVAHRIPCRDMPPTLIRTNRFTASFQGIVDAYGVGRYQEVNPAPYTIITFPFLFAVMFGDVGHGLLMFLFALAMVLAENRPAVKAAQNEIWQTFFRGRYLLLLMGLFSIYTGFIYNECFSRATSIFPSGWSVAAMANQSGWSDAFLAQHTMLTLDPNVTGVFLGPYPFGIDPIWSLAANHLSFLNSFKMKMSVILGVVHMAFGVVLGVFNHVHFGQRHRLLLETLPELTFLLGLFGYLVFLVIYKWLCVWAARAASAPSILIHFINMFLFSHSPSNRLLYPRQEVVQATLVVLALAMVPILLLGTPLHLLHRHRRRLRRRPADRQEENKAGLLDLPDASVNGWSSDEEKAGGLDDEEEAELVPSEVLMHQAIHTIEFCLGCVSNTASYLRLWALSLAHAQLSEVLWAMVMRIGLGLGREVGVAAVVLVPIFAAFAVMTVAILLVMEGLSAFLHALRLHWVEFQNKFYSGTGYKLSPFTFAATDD
UniProt Q8IYQ7: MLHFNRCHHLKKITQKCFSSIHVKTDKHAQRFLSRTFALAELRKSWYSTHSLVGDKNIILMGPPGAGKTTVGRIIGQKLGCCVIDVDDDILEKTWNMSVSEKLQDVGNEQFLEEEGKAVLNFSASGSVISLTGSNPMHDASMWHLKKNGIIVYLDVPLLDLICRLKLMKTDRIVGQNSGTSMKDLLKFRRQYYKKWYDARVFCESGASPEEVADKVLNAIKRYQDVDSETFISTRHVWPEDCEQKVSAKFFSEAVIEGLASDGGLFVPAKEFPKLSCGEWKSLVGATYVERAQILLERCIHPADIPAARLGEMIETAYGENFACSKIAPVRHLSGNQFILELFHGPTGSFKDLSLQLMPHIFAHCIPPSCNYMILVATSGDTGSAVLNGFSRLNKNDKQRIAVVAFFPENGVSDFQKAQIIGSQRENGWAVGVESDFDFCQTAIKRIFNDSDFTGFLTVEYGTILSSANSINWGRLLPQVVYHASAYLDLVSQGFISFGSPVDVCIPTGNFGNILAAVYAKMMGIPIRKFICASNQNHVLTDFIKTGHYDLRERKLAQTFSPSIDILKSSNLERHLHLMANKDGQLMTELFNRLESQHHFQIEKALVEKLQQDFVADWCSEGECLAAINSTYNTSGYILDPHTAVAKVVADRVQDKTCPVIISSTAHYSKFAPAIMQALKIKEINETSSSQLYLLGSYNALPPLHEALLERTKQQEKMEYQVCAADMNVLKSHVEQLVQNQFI
UniProt Q6I9Y2: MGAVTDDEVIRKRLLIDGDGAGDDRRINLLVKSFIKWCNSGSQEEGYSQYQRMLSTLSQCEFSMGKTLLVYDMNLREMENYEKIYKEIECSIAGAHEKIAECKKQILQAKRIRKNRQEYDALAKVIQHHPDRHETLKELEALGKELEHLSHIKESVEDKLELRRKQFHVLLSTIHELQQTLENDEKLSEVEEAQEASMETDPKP
UniProt Q9Y2W6: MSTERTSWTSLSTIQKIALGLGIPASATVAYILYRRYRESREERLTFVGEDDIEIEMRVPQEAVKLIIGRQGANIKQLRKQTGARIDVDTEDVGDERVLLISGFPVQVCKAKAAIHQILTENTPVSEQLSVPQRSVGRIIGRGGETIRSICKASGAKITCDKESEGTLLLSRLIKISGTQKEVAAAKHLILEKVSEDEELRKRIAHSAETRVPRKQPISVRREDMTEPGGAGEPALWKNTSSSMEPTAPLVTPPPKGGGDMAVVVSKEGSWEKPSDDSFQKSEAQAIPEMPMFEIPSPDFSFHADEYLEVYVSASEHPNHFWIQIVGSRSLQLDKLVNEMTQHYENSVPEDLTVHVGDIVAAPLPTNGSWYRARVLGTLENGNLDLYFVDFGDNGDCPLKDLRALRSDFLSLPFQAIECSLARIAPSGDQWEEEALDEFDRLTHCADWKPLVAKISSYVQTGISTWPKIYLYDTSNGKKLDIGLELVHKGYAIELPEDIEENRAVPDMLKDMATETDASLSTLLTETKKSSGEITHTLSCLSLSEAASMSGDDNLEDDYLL
UniProt Q86W42: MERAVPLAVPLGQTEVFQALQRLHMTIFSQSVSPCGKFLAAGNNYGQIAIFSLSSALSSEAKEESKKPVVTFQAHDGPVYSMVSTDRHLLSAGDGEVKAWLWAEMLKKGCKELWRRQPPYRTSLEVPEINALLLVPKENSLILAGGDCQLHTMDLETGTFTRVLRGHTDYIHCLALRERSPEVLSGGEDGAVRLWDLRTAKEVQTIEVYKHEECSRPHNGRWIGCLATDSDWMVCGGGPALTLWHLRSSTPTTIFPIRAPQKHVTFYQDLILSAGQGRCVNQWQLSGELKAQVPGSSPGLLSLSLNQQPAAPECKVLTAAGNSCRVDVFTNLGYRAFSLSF
UniProt Q99426: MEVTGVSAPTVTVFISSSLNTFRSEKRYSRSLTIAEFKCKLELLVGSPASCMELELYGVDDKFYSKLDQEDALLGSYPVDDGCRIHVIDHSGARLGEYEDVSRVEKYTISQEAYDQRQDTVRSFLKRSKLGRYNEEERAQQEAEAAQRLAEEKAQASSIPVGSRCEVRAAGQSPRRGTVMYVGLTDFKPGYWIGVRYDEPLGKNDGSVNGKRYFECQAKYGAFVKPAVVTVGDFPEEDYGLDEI
UniProt Q15813: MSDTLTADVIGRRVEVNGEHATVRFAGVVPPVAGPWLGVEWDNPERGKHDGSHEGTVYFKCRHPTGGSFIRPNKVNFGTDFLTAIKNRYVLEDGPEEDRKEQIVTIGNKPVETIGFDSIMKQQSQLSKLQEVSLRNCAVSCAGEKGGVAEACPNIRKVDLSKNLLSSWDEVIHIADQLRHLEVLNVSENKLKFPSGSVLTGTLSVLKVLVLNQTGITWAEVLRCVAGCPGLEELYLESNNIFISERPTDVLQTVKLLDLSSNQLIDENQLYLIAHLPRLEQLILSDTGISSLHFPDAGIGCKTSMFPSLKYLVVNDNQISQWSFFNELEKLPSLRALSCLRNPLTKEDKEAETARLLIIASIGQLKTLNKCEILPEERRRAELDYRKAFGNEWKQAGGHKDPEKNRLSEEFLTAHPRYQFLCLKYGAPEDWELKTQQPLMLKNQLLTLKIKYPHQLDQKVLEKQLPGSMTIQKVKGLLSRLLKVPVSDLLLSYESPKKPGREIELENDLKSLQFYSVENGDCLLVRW
UniProt O14925: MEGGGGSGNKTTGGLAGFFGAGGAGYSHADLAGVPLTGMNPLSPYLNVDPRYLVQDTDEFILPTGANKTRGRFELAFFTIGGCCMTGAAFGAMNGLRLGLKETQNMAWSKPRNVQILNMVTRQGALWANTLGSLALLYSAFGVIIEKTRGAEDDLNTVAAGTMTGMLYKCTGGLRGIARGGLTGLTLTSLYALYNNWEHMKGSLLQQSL
UniProt O60907: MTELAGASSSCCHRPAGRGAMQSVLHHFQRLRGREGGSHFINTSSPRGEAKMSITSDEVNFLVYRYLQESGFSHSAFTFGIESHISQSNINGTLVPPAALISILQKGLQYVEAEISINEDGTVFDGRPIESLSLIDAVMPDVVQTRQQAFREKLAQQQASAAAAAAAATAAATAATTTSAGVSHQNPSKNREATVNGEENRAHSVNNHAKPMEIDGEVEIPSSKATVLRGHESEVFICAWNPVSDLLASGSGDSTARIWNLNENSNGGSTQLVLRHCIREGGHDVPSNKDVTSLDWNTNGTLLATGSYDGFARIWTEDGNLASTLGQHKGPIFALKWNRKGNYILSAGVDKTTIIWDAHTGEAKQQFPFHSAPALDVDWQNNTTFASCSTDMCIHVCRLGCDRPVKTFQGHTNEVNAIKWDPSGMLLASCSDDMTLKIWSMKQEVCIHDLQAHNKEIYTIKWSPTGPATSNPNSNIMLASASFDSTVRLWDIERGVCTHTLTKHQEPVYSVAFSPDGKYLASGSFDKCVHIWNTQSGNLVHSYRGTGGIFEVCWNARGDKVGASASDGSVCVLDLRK
UniProt O60343: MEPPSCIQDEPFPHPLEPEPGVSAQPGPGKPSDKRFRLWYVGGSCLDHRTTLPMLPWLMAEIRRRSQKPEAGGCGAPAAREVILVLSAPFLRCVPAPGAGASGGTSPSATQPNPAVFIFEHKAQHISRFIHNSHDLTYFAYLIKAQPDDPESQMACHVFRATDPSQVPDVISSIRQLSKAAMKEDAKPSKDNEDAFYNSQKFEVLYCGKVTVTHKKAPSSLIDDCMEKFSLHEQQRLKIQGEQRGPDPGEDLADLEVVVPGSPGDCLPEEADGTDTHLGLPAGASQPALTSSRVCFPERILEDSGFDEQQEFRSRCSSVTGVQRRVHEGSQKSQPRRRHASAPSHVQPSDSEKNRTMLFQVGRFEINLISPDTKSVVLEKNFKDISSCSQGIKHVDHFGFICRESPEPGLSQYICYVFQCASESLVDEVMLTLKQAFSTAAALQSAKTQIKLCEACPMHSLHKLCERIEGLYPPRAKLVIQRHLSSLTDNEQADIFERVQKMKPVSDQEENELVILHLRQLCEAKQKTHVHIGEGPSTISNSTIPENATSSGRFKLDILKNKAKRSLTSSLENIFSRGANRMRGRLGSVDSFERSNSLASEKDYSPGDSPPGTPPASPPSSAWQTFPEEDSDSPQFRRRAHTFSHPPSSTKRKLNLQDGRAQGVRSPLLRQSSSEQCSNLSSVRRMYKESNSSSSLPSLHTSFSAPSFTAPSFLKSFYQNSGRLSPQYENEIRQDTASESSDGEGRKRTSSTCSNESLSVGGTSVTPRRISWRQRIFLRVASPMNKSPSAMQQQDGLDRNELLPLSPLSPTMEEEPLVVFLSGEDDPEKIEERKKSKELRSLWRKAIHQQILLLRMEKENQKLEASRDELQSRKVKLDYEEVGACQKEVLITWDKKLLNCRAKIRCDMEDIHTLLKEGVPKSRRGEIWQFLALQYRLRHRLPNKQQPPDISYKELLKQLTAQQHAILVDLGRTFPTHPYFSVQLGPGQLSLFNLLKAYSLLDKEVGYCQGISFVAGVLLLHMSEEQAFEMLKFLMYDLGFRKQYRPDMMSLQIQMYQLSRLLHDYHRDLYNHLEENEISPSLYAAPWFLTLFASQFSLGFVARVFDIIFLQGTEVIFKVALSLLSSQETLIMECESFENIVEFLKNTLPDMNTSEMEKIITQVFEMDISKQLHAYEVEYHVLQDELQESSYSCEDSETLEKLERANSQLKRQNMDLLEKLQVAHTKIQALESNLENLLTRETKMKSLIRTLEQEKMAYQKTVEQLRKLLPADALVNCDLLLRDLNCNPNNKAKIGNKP
UniProt P21980: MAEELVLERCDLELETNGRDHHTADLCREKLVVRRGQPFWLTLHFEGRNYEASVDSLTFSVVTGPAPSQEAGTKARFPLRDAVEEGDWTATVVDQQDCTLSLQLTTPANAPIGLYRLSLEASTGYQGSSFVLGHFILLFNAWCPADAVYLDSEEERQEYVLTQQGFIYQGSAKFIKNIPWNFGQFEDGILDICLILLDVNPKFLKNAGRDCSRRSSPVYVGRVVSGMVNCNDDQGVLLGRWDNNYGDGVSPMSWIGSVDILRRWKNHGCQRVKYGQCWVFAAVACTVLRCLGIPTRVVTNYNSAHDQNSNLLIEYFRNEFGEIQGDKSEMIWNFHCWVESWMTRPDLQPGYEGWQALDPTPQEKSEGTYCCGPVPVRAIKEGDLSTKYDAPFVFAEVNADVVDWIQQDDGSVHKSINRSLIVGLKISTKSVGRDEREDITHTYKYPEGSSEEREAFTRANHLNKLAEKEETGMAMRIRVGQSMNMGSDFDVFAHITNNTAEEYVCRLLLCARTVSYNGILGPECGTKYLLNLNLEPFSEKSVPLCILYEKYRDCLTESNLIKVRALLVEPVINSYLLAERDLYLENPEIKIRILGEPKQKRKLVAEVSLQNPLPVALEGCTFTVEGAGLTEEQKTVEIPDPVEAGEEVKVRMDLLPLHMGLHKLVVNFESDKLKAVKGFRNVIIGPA

Some of the results follow. Residues, ends and D or L forms follow the SMILES beside them. *: point of attachment. Cbz = O=C(OCc1ccccc1)*

Compound in this experiment: CC(C)C[C@@H](C=O)NC(=O)[C@H](CC(C)C)NC(=O)[C@H](CC(C)C)NC(=O)OCc1ccccc1
The experiment in a line: log2 fold change, soluble protein after heating vs DMSO (PISA); higher = thermal stabilisation; K562 cells, 10 uM, 30 min; active = over 0.2 and 3.5 SD of the protein, either way, in both replicates (recomputed). A digest of the protocol: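 Soluble protein was quantified by TMTpro 16plex LC-MS/MS after channel sums were equalised. It was obtained as the supernatant after 21,000xg for 90 min from pooled aliquots of K562 cells (2×10^6 cells/mL, 10 μM compound, 30 min) heated for 3 min across 48°C-58°C and extracted in PBS with 0.5% NP-40 at 4°C. Thermal stability values are relative to control samples and come from duplicates. They are given as log2 fold changes.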
In the case of TJAP1 (UniProt Q5JTD0), the log2 fold change was inactive: 0.014.

For TCEA1 (UniProt P23193), the log2 fold change is inactive: -0.013.

For the target TIMM50 isoform 2 (UniProt Q3ZCQ8), the log2 fold change is inactive: -0.041.

Turning to THUMPD1 (UniProt Q9NXG2), the log2 fold change is inactive: -0.037.

In the case of THBS1 (UniProt P07996), the log2 fold change is inactive: 0.168.

TCIRG1 (UniProt Q13488): the log2 fold change was inactive: 0.369.

As for TCF3 (UniProt P15923), the log2 fold change is inactive: 0.004.

Regarding THOC1 (UniProt Q96FV9), the log2 fold change was inactive: 0.069.

For THOC2 (UniProt Q8NI27), the log2 fold change is inactive: 0.072.

As to THNSL1 (UniProt Q8IYQ7), the log2 fold change is inactive: -0.012.

With TBC1D22B (UniProt Q9NU19), the log2 fold change is inactive: -0.044.

Consider TLCD4 (UniProt Q96MV1), for which the log2 fold change is inactive: -0.079.

In the case of THOC7 (UniProt Q6I9Y2), the log2 fold change was inactive: 0.186.

In the case of TKFC (UniProt Q3LXA3), the log2 fold change is inactive: -0.025.

With TGFBR3 (UniProt Q03167), the log2 fold change was inactive: 0.001.

As for TKT isoform 2 (UniProt P29401), the log2 fold change is inactive: 0.005.

As for TDRKH (UniProt Q9Y2W6), the log2 fold change is inactive: 0.104.

With TGOLN2 isoform 7 (UniProt O43493), the log2 fold change is inactive: 0.023.

Consider TBCC (UniProt Q15814), for which the log2 fold change was inactive: -0.004.

In the case of TF (UniProt P02787), the log2 fold change is inactive: 0.101.

TDP2 isoform 2 (UniProt O95551): the log2 fold change was inactive: 0.122.

With TERF2 (UniProt Q15554), the log2 fold change was inactive: 0.115.

With THOC6 (UniProt Q86W42), the log2 fold change is inactive: 0.

For the target TBCB (UniProt Q99426), the log2 fold change is inactive: 0.03.

On to TIMMDC1 (UniProt Q9NPL8), for which the log2 fold change was inactive: -0.029.

Regarding TBCE (UniProt Q15813), the log2 fold change was inactive: 0.104.

Take TK2 isoform 6 (UniProt O00142): the log2 fold change is inactive: -0.044.

Take TIMM23 (UniProt O14925): the log2 fold change is inactive: -0.039.

For TET1 (UniProt Q8NFU7), the log2 fold change is inactive: -0.159.

TCP1 (UniProt P17987): the log2 fold change was inactive: -0.03.

With TBL1X (UniProt O60907), the log2 fold change was inactive: 0.003.

As to TFB1M (UniProt Q8WVM0), the log2 fold change was inactive: 0.055.

Take TBL3 (UniProt Q12788): the log2 fold change is inactive: 0.057.

As to TIMM8B (UniProt Q9Y5J9), the log2 fold change is inactive: -0.22.

As to TBC1D4 (UniProt O60343), the log2 fold change is inactive: 0.01.

For TGM2 (UniProt P21980), the log2 fold change is inactive: -0.083.

With TBL1XR1 (UniProt Q9BZK7), the log2 fold change is inactive: -0.005.

Regarding TESC (UniProt Q96BS2), the log2 fold change is inactive: 0.187.

Take TCF12 isoform 3 (UniProt Q99081): the log2 fold change was inactive: -0.022.
